Results are given in words; binding and its absence hold for the method and conditions named. Binding seen in cells or lysates may run through a third protein. Some entries that bind do so weakly or less than the wild type.
Legend:
[1] = target: estrogen receptor alpha (human (endogenous in HUVEC)) (UniProt P03372); assay: co-IP; HUVEC protein extracts immunoprecipitated with anti-ERα antibody (1 μg, overnight, 4 °C, Protein G agarose), blotted for ROCK-II; cells treated with 0.1% DMSO or 50 μM formononetin for 15, 30, 45 and 60 min
[2] = target: estrogen receptor alpha (human (endogenous in HUVEC)) (UniProt P03372); assay: condition: only cells pretreated with 10 μM ICI 182,780 for 2 h; co-IP; HUVEC protein extracts immunoprecipitated with anti-ERα antibody, blotted for ROCK-II; cells pretreated with 10 μM ICI 182,780 for 2 h, washout, then 0.1% DMSO or 50 μM formononetin for 30 and 60 min

By UniProt entry, the sequences of proteins in these tests, tags left out.
UniProt P03372: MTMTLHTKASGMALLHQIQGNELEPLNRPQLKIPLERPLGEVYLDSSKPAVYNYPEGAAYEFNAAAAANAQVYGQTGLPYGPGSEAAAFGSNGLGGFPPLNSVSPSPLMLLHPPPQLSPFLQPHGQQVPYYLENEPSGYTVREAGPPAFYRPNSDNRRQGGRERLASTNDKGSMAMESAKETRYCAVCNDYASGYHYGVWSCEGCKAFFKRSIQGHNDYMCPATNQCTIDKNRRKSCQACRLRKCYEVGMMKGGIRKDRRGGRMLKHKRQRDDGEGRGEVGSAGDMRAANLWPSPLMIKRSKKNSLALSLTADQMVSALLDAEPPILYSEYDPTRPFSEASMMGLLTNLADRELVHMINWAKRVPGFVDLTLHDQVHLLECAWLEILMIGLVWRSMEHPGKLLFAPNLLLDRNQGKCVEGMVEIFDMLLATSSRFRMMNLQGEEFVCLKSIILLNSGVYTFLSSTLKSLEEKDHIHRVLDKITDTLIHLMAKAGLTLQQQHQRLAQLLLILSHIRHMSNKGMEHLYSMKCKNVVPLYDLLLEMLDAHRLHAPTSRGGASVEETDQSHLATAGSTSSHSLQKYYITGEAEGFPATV
UniProt O75116: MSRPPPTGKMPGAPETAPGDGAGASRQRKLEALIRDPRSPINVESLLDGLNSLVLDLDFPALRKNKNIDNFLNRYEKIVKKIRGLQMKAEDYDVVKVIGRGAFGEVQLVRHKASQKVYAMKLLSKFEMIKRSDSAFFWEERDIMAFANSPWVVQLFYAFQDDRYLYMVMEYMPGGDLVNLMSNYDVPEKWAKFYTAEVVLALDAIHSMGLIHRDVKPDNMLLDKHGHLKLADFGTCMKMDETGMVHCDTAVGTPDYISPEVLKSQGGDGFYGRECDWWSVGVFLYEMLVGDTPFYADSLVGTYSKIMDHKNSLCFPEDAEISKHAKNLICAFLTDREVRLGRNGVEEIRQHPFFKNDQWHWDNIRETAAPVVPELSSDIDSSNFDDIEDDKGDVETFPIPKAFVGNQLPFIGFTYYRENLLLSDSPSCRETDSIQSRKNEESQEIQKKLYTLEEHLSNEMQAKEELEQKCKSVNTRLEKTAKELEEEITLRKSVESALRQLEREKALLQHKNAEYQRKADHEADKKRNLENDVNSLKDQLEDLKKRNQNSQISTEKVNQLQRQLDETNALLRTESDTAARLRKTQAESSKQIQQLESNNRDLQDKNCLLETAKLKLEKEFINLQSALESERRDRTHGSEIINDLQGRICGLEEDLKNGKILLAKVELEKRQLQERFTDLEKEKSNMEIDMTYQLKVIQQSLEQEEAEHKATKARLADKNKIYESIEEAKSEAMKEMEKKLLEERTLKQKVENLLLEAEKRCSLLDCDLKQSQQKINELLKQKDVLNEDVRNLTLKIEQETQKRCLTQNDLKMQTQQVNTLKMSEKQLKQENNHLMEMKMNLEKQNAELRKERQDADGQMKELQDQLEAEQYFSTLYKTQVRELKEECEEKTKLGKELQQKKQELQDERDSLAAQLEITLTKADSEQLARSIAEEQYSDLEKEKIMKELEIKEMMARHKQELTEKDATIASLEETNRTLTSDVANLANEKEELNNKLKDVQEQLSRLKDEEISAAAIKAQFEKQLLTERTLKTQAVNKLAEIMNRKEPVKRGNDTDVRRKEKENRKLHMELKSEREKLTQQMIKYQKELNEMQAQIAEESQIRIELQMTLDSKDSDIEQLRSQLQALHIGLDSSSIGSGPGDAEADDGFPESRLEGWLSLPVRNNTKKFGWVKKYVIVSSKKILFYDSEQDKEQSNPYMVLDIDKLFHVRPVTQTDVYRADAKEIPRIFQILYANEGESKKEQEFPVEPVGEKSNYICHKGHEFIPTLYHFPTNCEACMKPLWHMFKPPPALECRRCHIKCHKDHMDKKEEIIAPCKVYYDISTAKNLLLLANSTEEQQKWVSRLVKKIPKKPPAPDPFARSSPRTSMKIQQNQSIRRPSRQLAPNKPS

binding [1]: binds
binding [2]: no binding
Substance: Rho-associated protein kinase ROCK-II (from UniProt O75116 1-1388) (enzyme)
